Source: PubChem BioAssay AID1508597 (Cure First, 2020)
Shown is an unselected part of the about 2,100 reagents, in one setting of the screen. 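Calls flag viability under 80% in either arm, not effects specific to rucaparib; the reference for percent is not stated.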 A number with no mark means an inactive call. Some reagents were tested in more than one well and are listed for each. Reagent sequences are not shown. The record does not give: the 100% reference.

- Test: 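Genes whose silencing sensitises or protects ovarian cancer cells against rucaparib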 (primary screen)
- Cells: human ovarian carcinoma lines grown from tumours: OCI-P5x (papillary serous) and OCI-C5x (clear cell)
- Knock-down reagent: siRNA pool against human genes, 1.25 pmol siRNA per well
- Time to read-out: 72 h or 96 h, depending on the cell culture
- Challenge: rucaparib 20 µM (about IC30) or vehicle, present until read-out
- Rucaparib or vehicle: Vehicle
- Cell line: OCI-P5x (serous)
- Read-out: 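ATP luminescence measured at 72 or 96 h according to the culture, then normalised and expressed as percent viability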
- Direction: viability, normalised: higher = more viable cells remaining
- Active means: 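Active when normalised viability falls below 80 percent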
- Calls: active = viability under 80%; inactive = viability 80% or more

gene,technical replicate,"viability, normalised (%)"
PTEN (phosphatase and tensin homolog),1,83.3
PTEN (phosphatase and tensin homolog),2,78 (active)
PTEN (phosphatase and tensin homolog),3,74.7 (active)
HMGA2 (high mobility group AT-hook 2),1,48.5 (active)
HMGA2 (high mobility group AT-hook 2),2,68.2 (active)
HMGA2 (high mobility group AT-hook 2),3,86.5
SIN3A (SIN3 transcription regulator family member A),1,59.2 (active)
SIN3A (SIN3 transcription regulator family member A),2,57.1 (active)
SIN3A (SIN3 transcription regulator family member A),3,72.5 (active)
CBX1 (chromobox 1),1,79.3 (active)
CBX1 (chromobox 1),2,69.5 (active)
CBX1 (chromobox 1),3,81.8
CDKL2 (cyclin dependent kinase like 2),1,98
CDKL2 (cyclin dependent kinase like 2),2,85.1
CDKL2 (cyclin dependent kinase like 2),3,98.2
MAPK4 (mitogen-activated protein kinase 4),1,114
MAPK4 (mitogen-activated protein kinase 4),2,108
MAPK4 (mitogen-activated protein kinase 4),3,100
TXK (TXK tyrosine kinase),1,68.8 (active)
TXK (TXK tyrosine kinase),1,67.5 (active)
TXK (TXK tyrosine kinase),2,76.6 (active)
TXK (TXK tyrosine kinase),2,70.3 (active)
TXK (TXK tyrosine kinase),3,75 (active)
TXK (TXK tyrosine kinase),3,69.5 (active)
PKD2L1,1,59.7 (active)
PKD2L1,2,69.9 (active)
PKD2L1,3,61.4 (active)
IRS2 (insulin receptor substrate 2),1,76.2 (active)
IRS2 (insulin receptor substrate 2),2,56.1 (active)
IRS2 (insulin receptor substrate 2),3,53.2 (active)
TTF2 (transcription termination factor 2),1,71.9 (active)
TTF2 (transcription termination factor 2),2,79.6 (active)
TTF2 (transcription termination factor 2),3,84.3
EPHB1 (EPH receptor B1),1,89.6
EPHB1 (EPH receptor B1),2,94.5
EPHB1 (EPH receptor B1),3,118
PCDHB2 (protocadherin beta 2),1,56 (active)
PCDHB2 (protocadherin beta 2),2,50.2 (active)
PCDHB2 (protocadherin beta 2),3,64.6 (active)
TLR4 (toll like receptor 4),1,54.1 (active)
TLR4 (toll like receptor 4),2,61.6 (active)
TLR4 (toll like receptor 4),3,59.6 (active)
"BRAF (B-Raf proto-oncogene, serine/threonine kinase)",1,56.4 (active)
"BRAF (B-Raf proto-oncogene, serine/threonine kinase)",2,58.8 (active)
"BRAF (B-Raf proto-oncogene, serine/threonine kinase)",3,52.6 (active)
CDH5 (cadherin 5),1,65 (active)
CDH5 (cadherin 5),2,69.7 (active)
CDH5 (cadherin 5),3,75.3 (active)

Records above whose gene name starts with M or m (3):
gene,technical replicate,"viability, normalised (%)"
MAPK4 (mitogen-activated protein kinase 4),1,114
MAPK4 (mitogen-activated protein kinase 4),2,108
MAPK4 (mitogen-activated protein kinase 4),3,100

Next records:
gene,technical replicate,"viability, normalised (%)"
CIT (citron rho-interacting serine/threonine kinase),1,87.6
CIT (citron rho-interacting serine/threonine kinase),2,97.1
CIT (citron rho-interacting serine/threonine kinase),3,89.2
PDE4C (phosphodiesterase 4C),1,74.9 (active)
PDE4C (phosphodiesterase 4C),2,55.5 (active)
PDE4C (phosphodiesterase 4C),3,51.2 (active)
SGF29 (SAGA complex associated factor 29),1,84.4
SGF29 (SAGA complex associated factor 29),2,66 (active)
SGF29 (SAGA complex associated factor 29),3,86.1
CAMKK1 (calcium/calmodulin dependent protein kinase kinase 1),1,87.1
CAMKK1 (calcium/calmodulin dependent protein kinase kinase 1),2,81.5
CAMKK1 (calcium/calmodulin dependent protein kinase kinase 1),3,80.2
"CKMT1B (creatine kinase, mitochondrial 1B)",1,89.9
"CKMT1B (creatine kinase, mitochondrial 1B)",2,82.9
"CKMT1B (creatine kinase, mitochondrial 1B)",3,92.9
INSRR (insulin receptor related receptor),1,61.8 (active)
INSRR (insulin receptor related receptor),2,56.3 (active)
INSRR (insulin receptor related receptor),3,60.6 (active)
"PTTG3P (pituitary tumor-transforming 3, pseudogene)",1,62.1 (active)
"PTTG3P (pituitary tumor-transforming 3, pseudogene)",2,68.1 (active)
"PTTG3P (pituitary tumor-transforming 3, pseudogene)",3,154
PDE6G (phosphodiesterase 6G),1,82.4
PDE6G (phosphodiesterase 6G),2,56.4 (active)
PDE6G (phosphodiesterase 6G),3,95.9
EZH1 (enhancer of zeste 1 polycomb repressive complex 2 subunit),1,45.1 (active)
EZH1 (enhancer of zeste 1 polycomb repressive complex 2 subunit),2,46.8 (active)
EZH1 (enhancer of zeste 1 polycomb repressive complex 2 subunit),3,48.2 (active)
